In all, about 340,000 compounds went through this assay and about 170 (0.05%) were called active. The shares of active, inactive and inconclusive entries below differ from those in the screen. Calls follow the shape of the dose curve; as a rule, active = well fitted inhibition curve with a large enough effect in the signal ratio, with a control signal flat (not every such curve was filed as active); inconclusive = small, poorly fitted or top-dose-only effect, or effect the other way, or a change in a side signal; inactive = flat fitted curve, though single readings scatter; the % refers to the signal ratio. Where the call is inconclusive, the potency comes from a doubtful curve fit.
Assay: qHTS Assay to Find Inhibitors of Chronic Active B-Cell Receptor Signaling;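 as to activity change, negative = inhibition: plate controls were basal doxycycline-induced cells for no effect and cells given 10 µM MG132 for full effect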
Details: ABC-DLBCL IkBa-CBG/CBR reporter, luminescence ratio (green luciferase fused to IkBa over red control in TMD8 lymphoma cells), 4 h; activity change, negative = inhibition: at 46.1 µM (top of the series) unless noted
Outline: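 TMD8 human ABC-DLBCL cells with doxycycline-inducible IκBα–green luciferase fusion and unfused red luciferase, in 0.5% FBS medium; compounds up to 46 uM, 4 h at 37C. Green/red luminescence ratio, filter-overlap corrected, fitted to concentration-response curves.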
Potency is read from the fitted curve at half-maximal effect.

SMILES | Potency | activity change, negative = inhibition
Cc1cccc(N2CCN(C(=O)CCS(=O)(=O)c3ccc4c(c3)NC(=O)CO4)CC2)c1C | inconclusive: 35.5 µM [falling, partial curve, poor fit] | 
Cc1cc(C(=O)c2cnc(/N=C/N(C)C)s2)c(F)cc1Cl | inconclusive: 12.6 µM [falling, partial curve, poor fit] | 
CC(C)CN(C(=O)c1ccco1)c1nc2ccccc2s1 |  | inconclusive: -1.57%
O=[N+]([O-])c1ccc(N2CCN(C(=S)c3cccc([N+](=O)[O-])c3)CC2)cc1 |  | inconclusive: 0.484%
Cc1ccc(Cl)cc1NC(=O)c1ccc(CSc2nnnn2C)cc1 | inconclusive: 32.6 µM [falling, partial curve, poor fit] | 
CCn1c(SCC(=O)Nc2nccc(C)n2)nc2ccccc21 |  | inconclusive: -18.2%
Cc1cc(N2CCN(c3ccc(F)cc3)CC2)n2ncnc2n1 |  | inconclusive: -4.3%
Oc1ccc(-c2csc(-c3ccccc3)n2)cc1O |  | inconclusive: -10.4%
Cc1ccccc1OCC(=O)Nc1sc2c(c1C#N)CCC2 |  | inconclusive: 8.62%
COc1ccc(CCCC(=O)O)c(C)c1 |  | inconclusive: 13.8%
CCOc1ccccc1CNC(=O)c1nn(C)c2c1CS(=O)(=O)c1ccccc1-2 |  | inactive: 5.41%
CC1Cc2nc(SCC(=O)N3CCOCC3)n(C)c(=O)c2S1 (centres undefined) |  | inactive: 0.0655%
CN1C(=O)NC(c2ccccc2)(C(F)(F)F)S/C1=C(/C#N)c1nnc(N2CCOCC2)n1-c1ccccc1 (centres undefined) |  | inconclusive: -13.6%
COc1ccc(CN2CCCCCC2)c(C)c1C |  | inconclusive: 8.14%
O=c1oc2cc(OCc3ccc(F)cc3F)ccc2cc1-c1ccc2ccccc2n1 |  | inconclusive: -1.49%
Cc1cc(Cl)c(OCCCNC2CCCC2)c(Br)c1 |  | inactive: -17%
C/C(=N\Nc1ncc(Cl)cc1Cl)c1ccc(OC(F)F)cc1 | inconclusive: 29.1 µM [falling, single point] | 
CCc1cc2c(SCC(=O)Nc3ccc(NC(C)=O)cc3)ncnc2s1 |  | inconclusive: -13.5%
COc1ccccc1-c1cn[nH]c(=S)n1 | inconclusive: 23.1 µM [falling, partial curve] | 
Cc1ccc2sc(N(CCCN(C)C)C(=O)c3ccc(S(=O)(=O)N(C)C4CCCCC4)cc3)nc2c1C | inconclusive: 29.1 µM [falling, single point] | 
Cc1ccccc1Nc1nc(N)nc(COC(=O)c2cccc(S(=O)(=O)N(C)C)c2)n1 |  | inconclusive: -5.57%
CN(C)CCCn1c(=O)n(Cc2ccccc2)c(=O)c2c3c(sc21)CCCCC3 |  | inconclusive: -4.39%
O=C(c1ccc(-n2cccn2)cc1)N1CCc2c([nH]c3ccccc23)C1c1ccccn1 (centres undefined) | inconclusive: 10 µM [falling, partial curve, poor fit] | 
Cc1cc(NC(=O)CSc2nc(N)c(NC(=O)c3ccccc3F)c(=O)[nH]2)no1 |  | inactive: -15.4%
COc1ccc(Nc2ccncc2[N+](=O)[O-])cc1 |  | inconclusive: 3.06%
O=C(Nc1ccc([N+](=O)[O-])cc1)C1CC12CCC2 (centres undefined) |  | inconclusive: -12.7%
COC(=O)c1sccc1NC(=O)Nc1ccc(C)c(C)c1 | inconclusive: 11.2 µM [falling, partial curve] | 

SMILES | Potency | activity change, negative = inhibition
Cc1ccnc(SCc2cc(=O)c(OC(=O)c3cc([N+](=O)[O-])ccc3Cl)co2)n1 |  | inconclusive: 2.74%
COc1ccc2oc(C(=O)NC3CCCCC3)c(C)c2c1 | inconclusive: 11.2 µM [falling, partial curve] | 
CCc1ccc2oc(-c3cc(N)ccc3Cl)nc2c1 |  | inconclusive: 340% [cytotoxic]
C=CCn1c(SCC(=O)NCCOC)nc2scc(-c3ccco3)c2c1=O |  | inconclusive: 3.91%
O=C(CCc1ccccc1Cl)Nc1cccc(S(=O)(=O)N2CCCC2)c1 |  | inconclusive: -9.26%
COC/C=C/C1=CC2=CC(=O)C(C)(OC(=O)c3cnc4ccccc4n3)C(=O)C2=CN1C(CO)CO (centres undefined) |  | inconclusive: 4.05%
Cc1cc(C)c2c3c(sc2n1)C(=O)N(C)CC(=O)N3 |  | inconclusive: -1.05%
COC(=O)c1nn(-c2ccccc2)c(Sc2ccc(Cl)cc2)c1/C=N/O |  | inconclusive: 1.71%
Cc1cc(C(=O)COc2ccccc2[N+](=O)[O-])c(C)n1C1CC1 | inconclusive: 28.2 µM [falling, partial curve, poor fit] | 
Cc1ccc(-c2nc(Nc3ccccc3)n[nH]2)cc1 | inconclusive: 6.51 µM [falling, single point] | 
COc1cc(CO)cc(Br)c1OCc1cccnc1 |  | inconclusive: -2.83%
CC1CCCCC1NC(=O)COc1ccccc1C#N (centres undefined) |  | inconclusive: 6.04%
CCOC(=O)C1(Cc2ccccc2C(F)(F)F)CCN(Cc2ccon2)CC1 |  | inactive: -10.1%
COc1ccc2[nH]c3c(NCc4ccco4)ncnc3c2c1 |  | inconclusive: 14.6%
Cc1sc(-c2cc3ccccc3oc2=O)nc1-c1ccc(Cl)cc1 |  | inactive: 4.44%
Cc1cc(N2CCN(C(=O)c3ccco3)CC2)n2ncc(-c3ccccc3)c2n1 |  | inconclusive: 0.265%
Cc1cc2nc(C3CCN(Cc4nnnn4Cc4ccccc4)CC3)[nH]c2cc1C |  | inactive: 6.78%
Cc1cc(C)c(OCC(=O)N(Cc2cccs2)C2CCS(=O)(=O)C2)c(C)c1 (centres undefined) | inconclusive: 2.51 µM [falling, partial curve, poor fit] | 
COc1ccc(CN(CCC(c2ccc(F)cc2)C2CCOC(C)(C)C2)C(=O)c2ccco2)cc1 (centres undefined) |  | inconclusive: 13.7%
CCOC(=O)c1sc(Nc2nc3c(OC)cccc3s2)cc1C |  | inconclusive: -13.9%
Cc1cc(C)cc(OCC(=O)Nc2ccccc2C(=O)NCc2ccco2)c1 | inconclusive: 18.4 µM [falling, partial curve, poor fit] | 
Cc1ccc(-c2noc(CCC(=O)Nc3ccccc3C)n2)cc1 |  | inconclusive: 0.284%
N#CCCn1cc(/C=N/O)c(-c2ccc(-c3ccccc3)cc2)n1 |  | inconclusive: -10.1%
CCN(CC)c1ccc2cc(-c3nc4ccccc4n3C)c(=O)oc2c1 | inconclusive: 1.78 µM [falling, full curve] | 
Cc1cc(C(=O)COc2ccc(C#N)cc2)c(C)n1C1CC1 |  | inconclusive: 12.1%
NC(=O)C1CCN(CC(=O)Nc2ccccc2Sc2ccc(Cl)cc2)CC1 | inconclusive: 13 µM [falling, partial curve, poor fit] | 
O=C(CSc1ncccn1)N1CCN(C(c2ccccc2)c2ccccc2)CC1 |  | inconclusive: -13.7%

Some of these compounds in order of formula weight, falling.
SMILES | Potency | activity change, negative = inhibition
Cc1ccnc(SCc2cc(=O)c(OC(=O)c3cc([N+](=O)[O-])ccc3Cl)co2)n1 |  | inconclusive: 2.74%
O=C(CCc1ccccc1Cl)Nc1cccc(S(=O)(=O)N2CCCC2)c1 |  | inconclusive: -9.26%
Cc1ccc(-c2nc(Nc3ccccc3)n[nH]2)cc1 | inconclusive: 6.51 µM [falling, single point] | 

Following part:

SMILES | Potency | activity change, negative = inhibition
COc1ccc(S(=O)(=O)NCCc2nnc3ccc(SCC(=O)Nc4cc(C)on4)nn23)cc1 |  | inconclusive: 6.22%
CS(=O)(=O)N1N=C(c2ccccc2)CC1c1ccc2c(c1)OCO2 (centres undefined) |  | inconclusive: 9.06%
COc1cc([N+](=O)[O-])cc(/C=C2/SC(=S)N(Cc3ccccc3)C2=O)c1O |  | inactive: 1.6%
Cc1nc(SCC(=O)NCC2CCCO2)c2cc(-c3ccccc3)sc2n1 (centres undefined) |  | inconclusive: 13.7%
CCOc1ccc(-n2cnc3scc(-c4ccc(OC)c(OC)c4)c3c2=O)cc1 |  | inconclusive: -8.29%
O=C(N/N=C/c1ccncc1)c1ccc(COc2cccc3cccnc23)cc1 |  | inconclusive: -18.8%
Cc1ccc(S(=O)(=O)/C(C#N)=C/c2c(N3CC(C)OC(C)C3)nc3ccccn3c2=O)cc1 (centres undefined) |  | inconclusive: 11.8%
N#Cc1cc2cc3c(cc2nc1N1CCOCC1)OCO3 |  | inactive: 8.98%
COc1ccc(S(=O)(=O)NCC(c2ccco2)S(=O)(=O)c2ccc(C)cc2)cc1C (centres undefined) | inconclusive: 35.5 µM [falling, single point] | 
Cc1ccc(S(=O)(=O)CCc2nc3ccccc3s2)cc1C |  | inconclusive: 24.9%
CCOc1cc(NC(=O)Nc2ccc(F)cc2)c(OCC)cc1NC(=O)CC |  | inconclusive: 3.28%
Cc1ccc2c(c1)-c1c(cnn1CC(=O)Nc1ccccc1N1CCN(C)CC1)CO2 |  | inconclusive: -16.9%
COc1ccc(NC(=O)c2sc(SCc3ccccc3)nc2N)cc1 | inconclusive: 23.1 µM [falling, partial curve] | 
O=C(CSc1nnc(CNC(=O)c2c(F)cccc2Cl)o1)Nc1ccc2c(c1)OCCO2 | inconclusive: 29.1 µM [falling, partial curve, poor fit] | 
CCC(Oc1ccccc1)C(=O)Nc1cc(C(F)(F)F)ccc1N1CCOCC1 (centres undefined) | inconclusive: 9.2 µM [rising, partial curve] | 
CC(C)OCCCN1C=C2C(=O)C(C)(OC(=O)CCc3ccccc3)C(=O)C=C2C=C1c1ccc(C#N)cc1 (centres undefined) |  | inconclusive: 11.4%
COc1ccc(Cl)cc1N1C(=O)CC(N2CCc3ccccc32)C1=O (centres undefined) | inconclusive: 9.2 µM [falling, partial curve, poor fit] | 
CCC1(c2ccc(F)cc2)NC(=O)N(CC(=O)NC2CCCC(C)C2C)C1=O (centres undefined) |  | inactive: 3.54%
O=C(NC(=S)N1CCc2ccccc21)C1CCC1 |  | inactive: -0.115%
O=C(NC1CCSc2ccccc21)c1ccccc1Br (centres undefined) | inconclusive: 17.8 µM [falling, partial curve, poor fit] | 
Cc1ccc(NC(=O)CNS(=O)(=O)c2ccc(F)cc2)cc1C |  | inconclusive: 1.6%
Cc1ccc2n(n1)c(=O)c(Cc1ccccc1)c([O-])[n+]2-c1ccccc1 |  | inconclusive: 0.62%
COC(=O)c1ccccc1NC(=O)c1cc(-c2ccc(C)cc2)on1 |  | inconclusive: -1.52%
CCOc1ccc(Sc2cc(C(=O)NCCCOC)c3ccccc3n2)cc1 |  | inactive: -8.17%
CN(CC(=O)O)S(=O)(=O)c1ccc2c(c1)n(C)c(=O)c(=O)n2C |  | inactive: 8.83%
